Data reported in US20210269519A1.
These are yes or no findings as the source states them, for the method shown. For some of these results: Binding seen in cells or lysates may run through a third protein. Some results given as binding are weak or reduced against the parent protein; the word gives no strength. Tags and fused reporters may be left off the sequences shown. Values belong to the binder of their own block, whether it stands above or below them.

Protein sequences, listed by entry. Tags and fused reporters are not part of them. Lines headed by an entry give the natural chain unless they say otherwise; changes in a name come on top.
UniProt O75581: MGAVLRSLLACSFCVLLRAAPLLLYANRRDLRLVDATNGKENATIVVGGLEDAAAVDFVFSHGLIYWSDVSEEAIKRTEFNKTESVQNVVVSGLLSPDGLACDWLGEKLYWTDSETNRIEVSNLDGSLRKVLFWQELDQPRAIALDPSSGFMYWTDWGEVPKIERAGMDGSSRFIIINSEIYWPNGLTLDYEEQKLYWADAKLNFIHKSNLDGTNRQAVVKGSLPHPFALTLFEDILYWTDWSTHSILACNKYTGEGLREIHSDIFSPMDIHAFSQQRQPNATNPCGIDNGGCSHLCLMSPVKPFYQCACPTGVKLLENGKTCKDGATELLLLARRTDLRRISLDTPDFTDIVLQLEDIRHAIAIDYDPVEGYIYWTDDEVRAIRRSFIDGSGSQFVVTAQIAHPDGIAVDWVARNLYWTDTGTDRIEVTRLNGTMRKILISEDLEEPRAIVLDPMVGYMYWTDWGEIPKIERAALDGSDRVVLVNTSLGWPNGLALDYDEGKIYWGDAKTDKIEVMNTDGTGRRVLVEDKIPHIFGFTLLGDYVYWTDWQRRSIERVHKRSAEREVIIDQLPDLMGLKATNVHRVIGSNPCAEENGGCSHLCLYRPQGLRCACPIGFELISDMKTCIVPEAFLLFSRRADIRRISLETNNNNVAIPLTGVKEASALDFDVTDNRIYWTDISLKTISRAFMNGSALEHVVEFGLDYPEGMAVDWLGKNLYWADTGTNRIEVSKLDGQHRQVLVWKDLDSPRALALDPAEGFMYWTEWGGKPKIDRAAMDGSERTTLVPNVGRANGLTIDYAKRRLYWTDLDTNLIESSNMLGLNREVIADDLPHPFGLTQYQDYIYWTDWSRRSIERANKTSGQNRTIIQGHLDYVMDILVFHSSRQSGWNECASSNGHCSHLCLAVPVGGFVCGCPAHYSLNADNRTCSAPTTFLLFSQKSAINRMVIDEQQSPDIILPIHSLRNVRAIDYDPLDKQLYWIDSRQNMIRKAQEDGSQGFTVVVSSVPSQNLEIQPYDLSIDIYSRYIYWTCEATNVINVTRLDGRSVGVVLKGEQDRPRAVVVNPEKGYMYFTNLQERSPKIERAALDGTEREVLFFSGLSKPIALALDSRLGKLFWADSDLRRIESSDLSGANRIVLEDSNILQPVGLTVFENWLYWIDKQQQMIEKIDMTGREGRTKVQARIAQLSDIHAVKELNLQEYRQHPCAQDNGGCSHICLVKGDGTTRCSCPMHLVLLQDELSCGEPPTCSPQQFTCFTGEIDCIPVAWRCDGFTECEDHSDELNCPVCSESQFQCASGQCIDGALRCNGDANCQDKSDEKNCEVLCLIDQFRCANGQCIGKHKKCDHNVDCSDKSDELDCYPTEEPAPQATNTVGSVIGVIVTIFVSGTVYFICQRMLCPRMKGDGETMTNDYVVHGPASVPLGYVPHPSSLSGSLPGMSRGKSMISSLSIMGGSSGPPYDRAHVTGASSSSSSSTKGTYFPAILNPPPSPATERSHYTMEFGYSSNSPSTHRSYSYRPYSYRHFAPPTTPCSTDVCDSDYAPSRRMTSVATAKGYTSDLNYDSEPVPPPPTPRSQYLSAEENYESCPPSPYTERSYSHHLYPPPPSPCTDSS
UniProt Q9ULT6: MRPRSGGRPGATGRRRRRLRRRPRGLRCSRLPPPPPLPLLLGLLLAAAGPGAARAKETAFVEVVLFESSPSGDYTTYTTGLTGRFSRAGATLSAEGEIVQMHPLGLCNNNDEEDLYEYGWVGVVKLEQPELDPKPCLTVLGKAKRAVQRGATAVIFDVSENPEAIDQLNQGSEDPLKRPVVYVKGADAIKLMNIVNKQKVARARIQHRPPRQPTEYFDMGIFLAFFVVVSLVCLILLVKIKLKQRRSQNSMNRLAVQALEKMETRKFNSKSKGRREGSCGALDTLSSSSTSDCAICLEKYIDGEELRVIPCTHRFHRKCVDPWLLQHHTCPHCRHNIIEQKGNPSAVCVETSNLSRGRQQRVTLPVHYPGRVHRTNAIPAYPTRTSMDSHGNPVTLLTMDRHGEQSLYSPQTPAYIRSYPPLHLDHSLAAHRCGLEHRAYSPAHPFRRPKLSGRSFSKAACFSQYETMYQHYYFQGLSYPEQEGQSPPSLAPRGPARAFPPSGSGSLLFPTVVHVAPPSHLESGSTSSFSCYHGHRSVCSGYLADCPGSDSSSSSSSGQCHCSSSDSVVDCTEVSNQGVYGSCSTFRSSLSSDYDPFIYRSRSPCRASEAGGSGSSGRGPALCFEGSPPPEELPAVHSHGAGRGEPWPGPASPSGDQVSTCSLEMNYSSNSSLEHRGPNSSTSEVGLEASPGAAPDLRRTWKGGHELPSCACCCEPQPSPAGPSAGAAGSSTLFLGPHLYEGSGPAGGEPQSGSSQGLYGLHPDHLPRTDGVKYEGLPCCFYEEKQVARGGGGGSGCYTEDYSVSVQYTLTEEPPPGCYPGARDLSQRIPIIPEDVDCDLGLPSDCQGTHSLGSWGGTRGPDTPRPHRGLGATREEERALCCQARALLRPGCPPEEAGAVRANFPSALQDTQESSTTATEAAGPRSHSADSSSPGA
UniProt Q9UKV5: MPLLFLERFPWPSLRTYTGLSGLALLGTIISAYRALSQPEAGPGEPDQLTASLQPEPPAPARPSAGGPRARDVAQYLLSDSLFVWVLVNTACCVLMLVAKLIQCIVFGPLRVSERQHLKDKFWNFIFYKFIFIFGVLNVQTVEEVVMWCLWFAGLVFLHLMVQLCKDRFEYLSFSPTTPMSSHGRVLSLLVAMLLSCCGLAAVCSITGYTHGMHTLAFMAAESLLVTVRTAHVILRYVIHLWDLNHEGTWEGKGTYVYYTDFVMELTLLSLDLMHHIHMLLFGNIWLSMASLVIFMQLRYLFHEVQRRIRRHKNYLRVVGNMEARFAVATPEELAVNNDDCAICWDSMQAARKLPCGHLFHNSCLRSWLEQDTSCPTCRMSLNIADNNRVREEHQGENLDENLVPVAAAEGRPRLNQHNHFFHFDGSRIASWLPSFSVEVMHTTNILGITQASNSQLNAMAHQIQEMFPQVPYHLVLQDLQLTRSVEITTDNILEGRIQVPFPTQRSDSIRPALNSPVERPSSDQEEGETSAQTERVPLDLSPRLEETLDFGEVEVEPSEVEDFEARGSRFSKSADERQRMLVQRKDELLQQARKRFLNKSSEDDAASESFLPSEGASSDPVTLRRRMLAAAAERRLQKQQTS
UniProt P49841: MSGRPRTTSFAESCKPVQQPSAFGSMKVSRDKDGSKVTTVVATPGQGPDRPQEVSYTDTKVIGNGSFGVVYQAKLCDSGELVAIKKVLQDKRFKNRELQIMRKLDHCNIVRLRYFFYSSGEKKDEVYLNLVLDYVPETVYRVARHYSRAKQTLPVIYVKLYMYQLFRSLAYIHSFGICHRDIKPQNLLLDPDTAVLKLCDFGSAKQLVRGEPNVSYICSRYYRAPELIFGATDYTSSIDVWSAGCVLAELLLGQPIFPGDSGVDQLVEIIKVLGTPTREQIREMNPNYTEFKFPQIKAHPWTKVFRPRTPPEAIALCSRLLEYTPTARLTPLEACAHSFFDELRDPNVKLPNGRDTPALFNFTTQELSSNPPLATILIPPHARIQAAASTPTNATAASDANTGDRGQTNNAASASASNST

Key:
[1] = target: β-catenin (human protein on the ProtoArray) (human) (UniProt P35222); assay: ProtoArray human protein microarray probed with Flag-human LMBR1L-V5
[2] = target: FLAG-tagged LRP6 (Homo sapiens (Human)) (UniProt O75581); assay: co-IP (anti-FLAG M2 agarose) from co-transfected HEK293T cells, anti-HA immunoblot
[3] = target: FLAG-tagged β-catenin (Homo sapiens (Human)) (UniProt P35222); assay: as above
[4] = target: FLAG-tagged ZNRF3 (Homo sapiens (Human)) (UniProt Q9ULT6); assay: as above
[5] = target: FLAG-tagged GP78 (Homo sapiens (Human)) (UniProt Q9UKV5); assay: as above
[6] = target: FLAG-tagged GSK-3β (Homo sapiens (Human)) (UniProt P49841); assay: as above
[7] = target: T1, FLAG-tagged UBXD8 (Homo sapiens (Human)) (UniProt Q96CS3); assay: as above
T1 sequence: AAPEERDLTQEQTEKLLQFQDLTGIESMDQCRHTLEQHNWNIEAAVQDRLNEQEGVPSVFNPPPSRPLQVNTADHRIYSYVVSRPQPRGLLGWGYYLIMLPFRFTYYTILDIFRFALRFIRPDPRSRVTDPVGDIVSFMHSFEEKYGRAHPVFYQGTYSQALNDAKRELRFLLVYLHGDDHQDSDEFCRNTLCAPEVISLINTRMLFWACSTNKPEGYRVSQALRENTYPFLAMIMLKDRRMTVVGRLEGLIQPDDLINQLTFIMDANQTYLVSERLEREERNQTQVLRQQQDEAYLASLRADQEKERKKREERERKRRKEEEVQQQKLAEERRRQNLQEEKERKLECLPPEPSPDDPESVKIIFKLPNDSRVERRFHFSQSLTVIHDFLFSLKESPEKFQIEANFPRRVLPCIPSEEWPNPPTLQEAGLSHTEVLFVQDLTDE

[8] = target: T2, FLAG-tagged UBAC2 (Homo sapiens (Human)) (UniProt Q8NBM4); assay: as above
T2 sequence: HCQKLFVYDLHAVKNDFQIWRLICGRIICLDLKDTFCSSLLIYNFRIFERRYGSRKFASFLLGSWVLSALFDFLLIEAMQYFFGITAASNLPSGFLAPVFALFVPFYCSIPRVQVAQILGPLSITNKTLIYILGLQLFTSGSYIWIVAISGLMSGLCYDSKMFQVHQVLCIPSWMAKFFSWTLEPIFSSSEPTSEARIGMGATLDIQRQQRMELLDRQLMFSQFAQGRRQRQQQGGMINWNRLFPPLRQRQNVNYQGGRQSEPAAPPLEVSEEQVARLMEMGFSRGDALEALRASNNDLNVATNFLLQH

[9] = target: FLAG-tagged VCP (Homo sapiens (Human)) (UniProt P55072); assay: as above
[10] = target: FLAG-tagged LRP6 (Homo sapiens (Human)) (UniProt O75581); assay: co-IP (anti-FLAG M2 agarose) from co-transfected HEK293T cells, anti-HA immunoblot (FIG. 4B)
[11] = target: FLAG-tagged β-catenin (Homo sapiens (Human)) (UniProt P35222); assay: as above
[12] = target: FLAG-tagged ZNRF3 (Homo sapiens (Human)) (UniProt Q9ULT6); assay: as above
[13] = target: FLAG-tagged GSK-3β (Homo sapiens (Human)) (UniProt P49841); assay: as above
[14] = target: FLAG-tagged GP78 (Homo sapiens (Human)) (UniProt Q9UKV5); assay: co-IP (anti-FLAG M2 agarose) from co-transfected HEK293T cells, anti-HA immunoblot (FIG. 19)
[15] = target: T1, FLAG-tagged UBXD8 (Homo sapiens (Human)); assay: as above
[16] = target: T2, FLAG-tagged UBAC2 (Homo sapiens (Human)); assay: as above
[17] = target: FLAG-tagged VCP (Homo sapiens (Human)) (UniProt P55072); assay: as above
[18] = target: T3, Flag tagged-human Lmbr1l (limb region 1 like, LMBR1L) (human) (UniProt Q6UX01); assay: anti-FLAG co-IP from HEK293T lysate + LC-MS/MS, vs empty vector
T3 sequence: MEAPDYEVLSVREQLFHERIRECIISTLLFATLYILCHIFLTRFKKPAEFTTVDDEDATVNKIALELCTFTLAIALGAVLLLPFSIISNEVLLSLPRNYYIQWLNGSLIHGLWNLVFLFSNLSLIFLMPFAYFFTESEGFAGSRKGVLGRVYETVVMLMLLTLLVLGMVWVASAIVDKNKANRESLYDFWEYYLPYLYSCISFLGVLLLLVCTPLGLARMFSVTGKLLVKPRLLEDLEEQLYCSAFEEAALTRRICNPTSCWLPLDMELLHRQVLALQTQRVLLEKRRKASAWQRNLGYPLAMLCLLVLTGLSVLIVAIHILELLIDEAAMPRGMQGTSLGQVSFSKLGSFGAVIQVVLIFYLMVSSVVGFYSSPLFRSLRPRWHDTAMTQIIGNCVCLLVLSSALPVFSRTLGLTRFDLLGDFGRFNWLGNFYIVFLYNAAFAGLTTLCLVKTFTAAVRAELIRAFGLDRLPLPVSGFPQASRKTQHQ

[19] = target: T3, Flag tagged-human Lmbr1l (limb region 1 like, LMBR1L) (human); assay: anti-FLAG co-IP from HEK293T lysate + LC-MS/MS

binding [1]: binds
B1: Flag-human LMBR1L-V5 (N-terminus FLAG-tagged and C-terminus V5-tagged recombinant human LMBR1L) (receptor, not shown: small tags and cut ends)
chain: T3 sequence

binding [2]: binds
binding [3]: binds
binding [4]: binds
binding [5]: binds
binding [6]: binds
binding [7]: binds
binding [8]: binds
binding [9]: binds
binding [10]: binds
binding [11]: binds
binding [12]: binds
binding [13]: binds
binding [14]: binds
binding [15]: binds
binding [16]: binds
binding [17]: binds
B2: HA-tagged LMBR1L (receptor, not shown: small tags and cut ends)
chain: T3 sequence

binding [18]: binds
binding [19]: binds
B3: β-catenin (CTNNB1) (protein)
chain: MELDMAMEPDRKAAVSHWQQQSYLDSGIHSGATTTAPSLSGKGNPEEEDVDTSQVLYEWEQGFSQSFTQEQVADIDGQYAMTRAQRVRAAMFPETLDEGMQIPSTQFDAAHPTNVQRLAEPSQMLKHAVVNLINYQDDAELATRAIPELTKLLNDEDQVVVNKAAVMVHQLSKKEASRHAIMRSPQMVSAIVRTMQNTNDVETARCTAGTLHNLSHHREGLLAIFKSGGIPALVKMLGSPVDSVLFYAITTLHNLLLHQEGAKMAVRLAGGLQKMVALLNKTNVKFLAITTDCLQILAYGNQESKLIILASGGPQALVNIMRTYTYEKLLWTTSRVLKVLSVCSSNKPAIVEAGGMQALGLHLTDPSQRLVQNCLWTLRNLSDAATKQEGMEGLLGTLVQLLGSDDINVVTCAAGILSNLTCNNYKNKMMVCQVGGIEALVRTVLRAGDREDITEPAICALRHLTSRHQEAEMAQNAVRLHYGLPVVVKLLHPPSHWPLIKATVGLIRNLALCPANHAPLREQGAIPRLVQLLVRAHQDTQRRTSMGGTQQQFVEGVRMEEIVEGCTGALHILARDVHNRIVIRGLNTIPLFVQLLYSPIENIQRVAAGVLCELAQDKEAAEAIEAEGATAPLTELLHSRNEGVATYAAAVLFRMSEDKPQDYKKRLSVELTSSLFRTEPMAWNETADLGLDIGAQGEPLGYRQDDPSYRSFHSGGYGQDALGMDPMMEHEMGGHHPGADYPVDGLPDLGHAQDLMDGLPPGDSNQLAWFDTDL
